In the supplement of paper PMC5949888 one finds growth estimate data, which are given here for 80 substances.

Most values lie at the floor of the assay. Slopes are relative: functional sequences can read slightly below zero. Some results are limits rather than exact numbers.

The test system of this data set is Saccharomyces cerevisiae PS128 hsf1 delta, HSF1(1-493) fusion. Briefly: growth estimate (transactivation domain function in HSF1 fusion, heat-shock survival) (a.u. (slope of normalised read count over time)); higher = stronger growth at 37°C, i.e. more transactivation activity. Particulars: library: random library.
For RRGRVSRSA, the growth estimate is below -0.25. With SVLAESAWGTTYGCHSSWSN the figure was below -0.25; with SGGVCRSHHQILR, below -0.25; with LMKGKRAATPRVTV, below -0.25. As to NGEDADRLKAH, the growth estimate was below -0.25. For SCLRVPLDLGYMYSVLTIRY the value was below -0.25; for PLHTIVVVCRTPLGWQAVSV, below -0.25; for VLRLV, below -0.25. In the case of LSRRNVGMRGGFARRRPPSH, the growth estimate was below -0.25. With YSQEIQGWIVVV the figure was below -0.25; with GGK, below -0.25. Regarding RYANEAGVCRPLHPTSRTHL, the growth estimate is below -0.25. With SYLRRVGVMCRTLK the figure was below -0.25; with GRRNRGSCGTQLWEPSRSAR, below -0.25. In the case of RVGESQPCSFRTFTRSARRP, the growth estimate was below -0.25. Take PTATSVRQCTTSWEGSVFGP: the growth estimate was below -0.25. For RRRYPSTLIETKLIPELLLR, the growth estimate is below -0.25. For LGRP the value was below -0.25; for VPSFLFLQRLRF, below -0.25; for GRQELLVCQNRWD, below -0.25.

Consider LAPSMETASFGDMEQGSRAL, for which the growth estimate is below -0.25. For RTIHERASVILLHRVLQARV the value was below -0.25. In the case of LIPGA, the growth estimate is below -0.25.

Take LEVSERM: the growth estimate was below -0.25. For YPDDGYWELV the value was below -0.25; for GSRGPEISVVNRSEVSA, below -0.25; for EQPNTHQRERWVMLTFSVVS, below -0.25. Consider YSLGCLH, for which the growth estimate was below -0.25.

For the substance LYGFFWFHLAPCRSAVGTRC, the growth estimate was below -0.25. Consider LNFWTPEYQPSRVIITIQAC, for which the growth estimate is below -0.25. With RPYQGDCASFAPSST, the growth estimate was below -0.25.

On to ELRGPPYSC, for which the growth estimate is below -0.25. For the substance GAENVDRLYSVPASIVGLPR, the growth estimate is below -0.25. As for KGEQSHKWDDTGR, the growth estimate was below -0.25. For the substance QDPRTRVWHTGATWGGCQRH, the growth estimate is below -0.25. For the substance SLGALRHCGSKGHWLHATQS, the growth estimate was below -0.25. With GGAEFNLDISRGSELFNRRV the figure was -0.0118. Regarding YML, the growth estimate is below -0.25.

On to CQDGPPYDL, for which the growth estimate was below -0.25. Consider PARRTINASIADRKLASGFL, for which the growth estimate is below -0.25. With TQDGRDGRCLRIRRCPQGSQ the figure was below -0.25. Consider ILWSNQEPRDRECDRRSLEV, for which the growth estimate was below -0.25.

Regarding SSPQKTWELRKRTCG, the growth estimate is below -0.25. For APHHRNKG, the growth estimate is below -0.25. Take CIELEAYVQIQAVVAGTNSR: the growth estimate is below -0.25.

In the case of WPRLQLVMLLSLWLCSLEVY, the growth estimate is below -0.25. For HYLVGISLSCTARGTHTFCA the value was below -0.25.

In the case of LVRVLSHWN, the growth estimate is below -0.25. For NEGGRVREYLHGSASRFFV the value was below -0.25; for RELGSNRVSLRERLRCSCWA, below -0.25; for TGGIPQSSRRSRRTSWEYRA, below -0.25. For KVE the value was below -0.25; for LVVQKAY, below -0.25; for RGFRWDVTTAR, below -0.25. With RLGHIALGTGPRQGGPRS the figure was below -0.25; with NGTGMYPAPQPSSWIGKLHT, below -0.25. For PASYGG, the growth estimate is below -0.25. For RFRESRQE the value was below -0.25; for TWRLLNKV, below -0.25. As to QLLQNESQIGPYLLRRWLYF, the growth estimate is below -0.25. For VVLRHNPLFLALNALRERH the value was below -0.25; for VHS, below -0.25; for GDILAES, below -0.25.

As for HFVHVLGAAHSIILSSKTAR, the growth estimate was below -0.25. Turning to RAMP, the growth estimate was below -0.25.

On to FLYDSEITNGTCMYRWV, for which the growth estimate is below -0.25. Turning to EVGLYEPFRAMHFSLED, the growth estimate was below -0.25. With WSTRLQGVCLHKNS the figure was below -0.25; with RCGLRSIETPSVKRSVRTIR, below -0.25; with EVDCWGLCRSAADRHDLPTV, below -0.25. Consider AYPQTFSFGLESKLDSSTFV, for which the growth estimate is below -0.25.

As to RPGWVTLLSRVDRNCLLDER, the growth estimate was below -0.25.

As to TSMKLGSGSTFSFCSYGVVT, the growth estimate was below -0.25.

As for TNVRCAGVSVCHFPWTALAR, the growth estimate is below -0.25. With LTYASCMAAMEF the figure was below -0.25. As to NSEFGGVSGRKAVTESEESR, the growth estimate is below -0.25.

As to KSSL, the growth estimate was below -0.25. For RSLRNIGP the value was below -0.25; for KNMLVYSTGR, below -0.25; for VTYGERGVAWPVR, below -0.25.
